PubChem BioAssay AID504804 – Drosophila RNAi Screening Center, 2011
The deposit covers about 19,000 reagents; shown is a random part of those with a known target gene and a result. Over the whole deposit, 47 (0.25%) were called active. 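Signals are raw, not normalised; exact z-scores behind calls not deposited; actives needed confirmation, so some wells reaching 2 SD are inactive.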 Names joined by + are all predicted targets of the reagent.

Screen: 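dsRNAs that improve Kc cell survival under doxorubicin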 (primary screen)
Cells: Drosophila Kc cells
Reagents: long dsRNA against Drosophila genes, 0.5 µg dsRNA per well
Time to read-out: 96 h (48 h knock-down, then 48 h drug)
Treatment: doxorubicin 5 µg/ml for 48 h, added 48 h after dsRNA
Measured: 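Luminescent ATP counts per replicate, not normalised, reflecting viable cells after 48 h dsRNA knock-down followed by 48 h of 5 µg/ml doxorubicin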
Direction: raw ATP luminescence: higher = more viable cells, protection from doxorubicin
Hit rule: 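z-score of 2 or more over plate mean in both duplicates, retained only when retests and separate dsRNAs confirm the protection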

target gene	dsRNA	SD above plate mean	raw ATP luminescence, replicate 1	raw ATP luminescence, replicate 2	outcome
CG9467 (GeneID 41207)	DRSC16498		65777	32003	inactive
JMJD7 (GeneID 39514)	DRSC09703		2.47e5	2.16e5	inactive
CG42326 (GeneID 35838)	DRSC06483		45263	69957	inactive
CG42326 (GeneID 35838)	DRSC06484		43927	73607	inactive
csw (GeneID 45278)	DRSC18756		33050	39390	inactive
CG6225 (GeneID 41559)	DRSC15996		55077	49297	inactive
CG31710 (GeneID 318907)	DRSC01089		3.42e5	3.14e5	inactive
WDR79 (GeneID 33865)	DRSC03159		1.04e5	61690	inactive
CG5653 (GeneID 39024)	DRSC10534		71527	71037	inactive
Lcp65Ag3 (GeneID 59159)	DRSC10345		89893	1.05e5	inactive
ND1 (retired record) (GeneID 192473)	DRSC21273		2.82e5	2.25e5	inactive
Clamp (GeneID 35445)	DRSC03718		72490	63183	inactive
CG43740 (GeneID 31962)	DRSC17994		3.30e5	2.87e5	inactive
robls54B (GeneID 5740248)	DRSC05660		1.80e5	1.47e5	inactive
CG13377 (GeneID 30972)	DRSC18622		65690	55120	inactive
CG13458 (GeneID 39646)	DRSC10005	at least 2 SD above plate mean	46890	44130	inactive
CG32686 (GeneID 318153)	DRSC17645		1.92e5	1.97e5	inactive
Prosalpha4T2 (GeneID 37910)	DRSC04643		66090	48013	inactive
Ir11a (GeneID 32189)	DRSC19699		3.09e5	3.01e5	inactive
magu (GeneID 36048)	DRSC06832		81810	69623	inactive
CG31917 + Tfb5	DRSC02362		24083	20777	inactive
CG31917 + Tfb5	DRSC02363		25317	28707	inactive
CG14717 (GeneID 41412)	DRSC14940		55030	55437	inactive
Utx (GeneID 34377)	DRSC02872		44517	80903	inactive
CG13766 (GeneID 33922)	DRSC02271		23993	35053	inactive
CG2444 (GeneID 32121)	DRSC19846		3.91e5	4.07e5	inactive
jus (GeneID 43453)	DRSC14861		13310	18030	inactive
jus (GeneID 43453)	DRSC14862		28930	47780	inactive
CG2909 (GeneID 31958)	DRSC18241		2.96e5	2.56e5	inactive
ci (GeneID 43767)	DRSC17172		55670	55390	inactive
CG34305 (GeneID 5740825)	DRSC11995		59477	71960	inactive
Rab32 (GeneID 35940)	DRSC05146		81167	70020	inactive
Rab32 (GeneID 35940)	DRSC07522		77090	72313	inactive
CG31174 (GeneID 318616)	DRSC13518		2.19e5	2.48e5	inactive
S-Lap4 (GeneID 326188)	DRSC10957		80680	65400	inactive
Smug (GeneID 42078)	DRSC15762		74740	85340	inactive
p-cup (GeneID 32727)	DRSC19513		2.43e5	2.28e5	inactive
CG15141 (GeneID 35044)	DRSC02441		89723	88933	inactive
CG15141 (GeneID 35044)	DRSC02442		77427	67263	inactive
sktl (GeneID 37356)	DRSC04715	at least 2 SD above plate mean	93880	91533	inactive
CG15650 (GeneID 37373)	DRSC04241		67927	65567	inactive
CG9109 (GeneID 33844)	DRSC03139		1.04e5	67790	inactive
Rab9Fb (GeneID 32029)	DRSC19854		3.53e5	4.16e5	inactive
CG13545 (GeneID 37675)	DRSC04187		38473	62653	inactive
Tsf3 (GeneID 36800)	DRSC06849		56833	60063	inactive
CG13023 (GeneID 39894)	DRSC09454		77787	1.01e5	inactive
CG13023 (GeneID 39894)	DRSC09903		61410	43393	inactive
CG4438 (GeneID 34257)	DRSC02746		41170	84880	inactive
CG6729 (GeneID 34484)	DRSC02984		91107	67517	inactive
CG13185 (GeneID 36268)	DRSC06310		72313	74470	inactive
Cpr76Bb (GeneID 40121)	DRSC11061		74260	68697	inactive
Cyp6t2Psi (GeneID 3772355)	DRSC01840		59510	57683	inactive
CG13313 (GeneID 39022)	DRSC09984		64440	78223	inactive
ATP7 (GeneID 32142)	DRSC19819		3.41e5	3.24e5	inactive
alpha-Man-IIb (GeneID 41913)	DRSC16898		51843	52823	inactive
Mps1 (GeneID 42126)	DRSC16273		56237	53030	inactive
Arpc2 (GeneID 35311)	DRSC02113		92610	83263	inactive
CG32643 (GeneID 318138)	DRSC18962		2.00e5	2.15e5	inactive
CG34196 (GeneID 5740437)	DRSC05704		96263	82543	inactive
alpha-Spec (GeneID 38231)	DRSC08704		67213	64337	inactive
CG7573 (GeneID 39272)	DRSC10884		82223	73103	inactive
CG33752 (GeneID 3771860)	DRSC05351		76373	69920	inactive
CG33203 (GeneID 43414)	DRSC14874		28980	29370	inactive
CG33203 (GeneID 43414)	DRSC14876		67460	37440	inactive
CG33203 (GeneID 43414)	DRSC14877		61960	47080	inactive
RpS14b (GeneID 47219)	DRSC18711		22120	24210	inactive
shd (GeneID 39592)	DRSC11129		83510	57647	inactive
CG4452 (GeneID 39069)	DRSC10422		32557	36473	inactive
HSPBAP1 (GeneID 43329)	DRSC14567		39290	44190	inactive
CG30416 (GeneID 246603)	DRSC04565		80690	61083	inactive
Dnah3 (GeneID 38586)	DRSC08130		1.65e5	1.29e5	inactive
Dnah3 (GeneID 38586)	DRSC08513		77857	91000	inactive
ATPsynbeta (GeneID 43829)	DRSC17194		43440	53480	inactive
vls (GeneID 35289)	DRSC02101		1.02e5	58967	inactive
red (GeneID 41738)	DRSC14477		45930	15760	inactive
Try29F (GeneID 34226)	DRSC03466		44610	51630	inactive
CG8541 (GeneID 38838)	DRSC10989		88563	79097	inactive
yellow-f2 (GeneID 41596)	DRSC16372		58967	21377	inactive
CG9427 (GeneID 41164)	DRSC16490		55777	18397	inactive
CG13678 (GeneID 38922)	DRSC10036		2.04e5	1.94e5	inactive
CG7011 (GeneID 39657)	DRSC09347		80990	98987	inactive
RanBPM (GeneID 36102)	DRSC06079		44603	42820	inactive
lncRNA:CR32661 (GeneID 3772605)	DRSC19794		3.57e5	3.25e5	inactive
CG32188 (GeneID 317901)	DRSC09510		65640	73090	inactive
ATP8A (GeneID 36488)	DRSC05421		70420	89930	inactive
ATP8A (GeneID 36488)	DRSC06643		57147	57597	inactive
CG14013 (GeneID 33786)	DRSC02344		23140	31733	inactive
CG15186 (GeneID 40797)	DRSC12566		66780	57670	inactive
angel (GeneID 37748)	DRSC04670		84140	62873	inactive
CG10660 (GeneID 39422)	DRSC09769		42060	38603	inactive
CHKov1 (GeneID 43067)	DRSC01566		2.39e5	2.04e5	inactive
CHKov1 (GeneID 43067)	DRSC01696		2.42e5	2.20e5	inactive
CHKov1 (GeneID 43067)	DRSC14258		58440	65090	inactive
CHKov1 (GeneID 43067)	DRSC20937		2.01e5	2.13e5	inactive
CG42788 (GeneID 41817)	DRSC15330		65700	90210	inactive
CG42788 (GeneID 41817)	DRSC16139		54890	63010	inactive
CG42788 (GeneID 41817)	DRSC16152		59010	68350	inactive
vir-1 (GeneID 34652)	DRSC02501		67687	82033	inactive
vir-1 (GeneID 34652)	DRSC02863		58883	74453	inactive
CG9825 (GeneID 37624)	DRSC04569		49817	56730	inactive
RpL12 (GeneID 45329)	DRSC04344		20607	28357	inactive
egl (GeneID 37757)	DRSC04682		58090	45033	inactive
uno (GeneID 35778)	DRSC07244		35787	67257	inactive
Epp (GeneID 42840)	DRSC14607		43480	46097	inactive
CG31102 (GeneID 326118)	DRSC14260		78450	69300	inactive
CG12194 (GeneID 33685)	DRSC00345		21327	22803	inactive
CG14312 (GeneID 42195)	DRSC14791		84060	95080	inactive
